Measurements taken from publication PMC3639281.
These are yes or no findings as the source states them, for the method shown. Some binding calls cover weakened binding; strength is not graded here.

Amino acid sequences for entries named in this document (tags omitted).
UniProt Q03135: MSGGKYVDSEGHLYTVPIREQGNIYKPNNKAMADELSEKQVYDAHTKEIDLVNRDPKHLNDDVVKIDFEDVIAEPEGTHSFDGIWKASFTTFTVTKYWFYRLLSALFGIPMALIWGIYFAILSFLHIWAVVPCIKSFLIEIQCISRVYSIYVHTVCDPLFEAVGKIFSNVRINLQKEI
UniProt P07355: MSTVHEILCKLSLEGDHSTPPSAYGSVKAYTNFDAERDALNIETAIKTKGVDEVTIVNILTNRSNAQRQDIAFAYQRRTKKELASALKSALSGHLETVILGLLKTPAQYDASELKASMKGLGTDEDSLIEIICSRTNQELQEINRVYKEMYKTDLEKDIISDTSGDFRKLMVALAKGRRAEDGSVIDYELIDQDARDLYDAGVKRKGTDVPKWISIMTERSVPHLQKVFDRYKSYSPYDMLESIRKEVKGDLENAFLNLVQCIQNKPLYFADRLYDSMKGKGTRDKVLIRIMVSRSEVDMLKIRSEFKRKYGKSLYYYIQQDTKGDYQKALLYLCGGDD

Biological target: caveolin 1 (human (endogenous in placenta)) (UniProt Q03135)
Experiment: native gel or EMSA; 2D BN/SDS-PAGE of human placenta lysate solubilised with 1.5% Triton X-100 (4-13% blue native PAGE, pH 7.0, 4°C, then SDS-PAGE); spots in the same vertical line identified by LC-MS/MS

Question: How did the binding turn out when annexin A2 (from UniProt P07355 1-339) was run?
Answer: binds
